Results published in PubChem BioAssay AID274 (DTP/NCI, 2004).
The list is a part of this screen's results and no random one: it gathers tests that were run many times, whatever their T/C, doses with no T/C, and many T/C values between a quarter and a half above the control. Further doses and runs are listed elsewhere. T/C is the treated group as % of the vehicle group. Some entries give survivors of the animals treated and no T/C: the source files T/C as zero there, which appears to mark a toxic dose or a test without result, not a measured value. Some doses without a T/C left all or most animals alive at the check, yet need not have been tolerated: survival well below the control is almost never listed, so the zero probably covers shortened survival too. Survivors were counted at the toxicity check, usually on the fifth day, unless a day is given; later deaths do not show. Schedule codes are those of the source, read here as Q, the interval in days (D) or hours (H), X, the number of doses. Counts like (3×) give the number of equal values in this list. Some entries hold several experiments; the values are given in rising order. For survival time, this PubChem deposit counts one and a half times the control or more as active, and values a quarter to a half above the control carry no call in these data; other NCI protocols may use other cut-offs. Some T/C values carry the count of animals alive at the toxicity check (mostly the fifth day); without a count, all were alive then.

Tested on: BDF1 mice, Lewis lung carcinoma iv, survival T/C
Assay: NCI In Vivo Anticancer Drug Screen. Data for tumor model Lewis Lung Carcinoma (intravenous) in B6D2F1 (BDF1) mice
Conditions: T/C endpoint: median survival time, higher T/C = longer survival
Description: The antitumor activity of compounds was measured in mice bearing transplantable tumors. Survival or tumor size were measured and the results are expressed as the measurement made in the treated group (T) divided by the measurement made in the vehicle treated control group (C). The tumor model used in this assay is Lewis Lung Carcinoma (intravenous) in B6D2F1 (BDF1) mice

[1] = dose: 4.0 mg/kg/injection, schedule: Q01DX009 (ip), vehicle: saline
[2] = dose: 14.0 mg/kg/injection, schedule: Q01DX001 (ip), vehicle: saline
[3] = dose: 20.0 mg/kg/injection, schedule: Q01DX001 (ip), vehicle: saline
[4] = dose: 20.0 mg/kg/injection, schedule: Q01DX001 (iv), vehicle: saline
[5] = dose: 50.0 mg/kg/injection, schedule: Q01DX009 (ip), vehicle: saline with Tween-80
[6] = dose: 50.0 mg/kg/injection, schedule: Q01DX009 (ip), vehicle: saline
[7] = dose: 100.0 mg/kg/injection, schedule: Q01DX009 (ip), vehicle: saline
[8] = dose: 25.0 mg/kg/injection, schedule: Q01DX009 (ip), vehicle: saline with Tween-80
[9] = dose: 400.0 mg/kg/injection, schedule: Q01DX009 (ip), vehicle: saline with Tween-80
[10] = dose: 50.0 mg/kg/injection, schedule: Q01DX009 (ip), vehicle: Klucel (hydroxypropylcellulose) (HPC)
[11] = dose: 100.0 mg/kg/injection, schedule: Q01DX009 (ip), vehicle: Klucel (hydroxypropylcellulose) (HPC)
[12] = dose: 400.0 mg/kg/injection, schedule: Q01DX009 (ip), vehicle: Klucel (hydroxypropylcellulose) (HPC)
[13] = dose: 50.0 mg/kg/injection, schedule: Q01DX009 (ip), vehicle: suspension in saline
[14] = dose: 100.0 mg/kg/injection, schedule: Q01DX009 (ip), vehicle: suspension in saline
[15] = dose: 200.0 mg/kg/injection, schedule: Q01DX009 (ip), vehicle: suspension in saline

In the case of `COc1cccc2c1C(=O)c1c(O)c3c(c(O)c1C2=O)C[C@@](O)(C(=O)CO)C[C@@H]3OC1CC(N)C(O)C(C)O1` (some centres not stated), the survivor count (dose: 0.5 mg/kg/injection, schedule: Q04DX003 (ip), vehicle: saline) is reported as 4 of 8, the T/C (dose: 1.8 mg/kg/injection, schedule: Q01DX009 (ip), vehicle: saline) is reported as 145 % of control and the T/C (dose: 2.0 mg/kg/injection, schedule: Q01DX009 (ip), vehicle: saline) is reported as 126 % of control. For the same compound, the T/C (dose: 2.74 mg/kg/injection, schedule: Q04DX003 (ip), vehicle: saline) was 126 % of control, the survivor count (dose: 3.67 mg/kg/injection, schedule: Q01DX009 (ip), vehicle: saline) was 8 of 8 and the survivor count [1] was 10 of 10 (2×). For the same compound, the T/C (dose: 4.8 mg/kg/injection, schedule: Q01DX001 (ip), vehicle: saline) was 104, 108, 114, 140 % of control, the T/C (dose: 6.86 mg/kg/injection, schedule: Q01DX001 (ip), vehicle: saline) was 109, 119, 123, 159 % of control and the T/C (dose: 6.86 mg/kg/injection, schedule: Q01DX001 (iv), vehicle: saline) was 128 and 137 % of control. For the same compound, the survivor count (dose: 8.0 mg/kg/injection, schedule: Q01DX009 (ip), vehicle: saline) was 10 of 10, the survivor count (dose: 8.0 mg/kg/injection, schedule: Q04DX003 (ip), vehicle: saline) was 8 of 8 (2×) and the T/C (dose: 9.8 mg/kg/injection, schedule: Q01DX001 (ip), vehicle: saline) was 123 (2×), 152, 421 % of control. The T/C (dose: 9.8 mg/kg/injection, schedule: Q01DX001 (iv), vehicle: saline) was 128 % of control (2×), the T/C (dose: 10.0 mg/kg/injection, schedule: Q01DX001 (im), vehicle: water) was 137 % of control and the T/C [2] was 114 [6 of 8 alive], 123, 126 % of control. The survivor count [2] was 8 of 8, the T/C (dose: 14.0 mg/kg/injection, schedule: Q01DX001 (iv), vehicle: saline) was 127 % of control and the survivor count (dose: 16.7 mg/kg/injection, schedule: Q01DX001 (im), vehicle: water) was 6 of 8. For the same compound, the T/C [3] was 92 % of control [7 of 8 alive], the survivor count [3] was 7 of 7 and 8 of 8 and the T/C [4] was 133 % of control. The survivor count [4] was 5 of 8 and 8 of 8.
`COc1cccc2c1C(=O)c1c(O)c3c(c(O)c1C2=O)C[C@@](O)(C(=O)CO)C[C@@H]3OC1CC(N)CC(C)O1` (some centres not stated) was tested, and the T/C (dose: 0.75 mg/kg/injection, schedule: Q01DX009 (ip), vehicle: water) was 130 % of control, the survivor count (dose: 1.5 mg/kg/injection, schedule: Q01DX009 (ip), vehicle: water) was 10 of 10 and the survivor count (dose: 3.0 mg/kg/injection, schedule: Q01DX009 (ip), vehicle: water) was 10 of 10. For the same compound, the survivor count (dose: 6.0 mg/kg/injection, schedule: Q01DX009 (ip), vehicle: water) was 7 of 10.
In the case of `COc1cc2cc[n+](C)c(Cc3ccccc3)c2cc1OC`, the survivor count [5] is reported as 8 of 10, the T/C [6] is reported as 133 % of control and the survivor count (dose: 100.0 mg/kg/injection, schedule: Q01DX009 (ip), vehicle: saline with Tween-80) is reported as 0 of 10. The survivor count [7] was 0 of 10.
With `Nc1ncnc2nc[nH]c12` the survivor count (dose: 256.0 mg/kg/injection, schedule: Q01DX009 (ip), vehicle: Klucel (hydroxypropylcellulose) (HPC)) was 3 of 10 and the survivor count (dose: 512.0 mg/kg/injection, schedule: Q01DX009 (ip), vehicle: Klucel (hydroxypropylcellulose) (HPC)) was 6 of 10.
In the case of `CCCC(=O)Oc1ccc(/C=N/NC(N)=S)nc1`, the survivor count [8] is reported as 9 of 10 and the survivor count [9] is reported as 10 of 10.
For `COc1ccc2nc3cc(Cl)ccc3c(NCCNCCNCCNc3c4ccc(Cl)cc4nc4ccc(OC)cc34)c2c1`, the survivor count [10] was 0 of 10 and the survivor count [11] was 0 of 10.
`S=c1nc[nH]c2nc[nH]c12` was tested, and the survivor count (dose: 60.0 mg/kg/injection, schedule: Q01DX009 (ip), vehicle: Klucel (hydroxypropylcellulose) (HPC)) was 9 of 10 and 10 of 10, the survivor count (dose: 120.0 mg/kg/injection, schedule: Q01DX009 (ip), vehicle: Klucel (hydroxypropylcellulose) (HPC)) was 10 of 10 and the survivor count (dose: 240.0 mg/kg/injection, schedule: Q01DX009 (ip), vehicle: Klucel (hydroxypropylcellulose) (HPC)) was 10 of 10.
With `NCCc1ccc(O)c(O)c1` the survivor count [10] was 10 of 10, the survivor count [11] was 10 of 10 and the survivor count (dose: 200.0 mg/kg/injection, schedule: Q01DX009 (ip), vehicle: Klucel (hydroxypropylcellulose) (HPC)) was 10 of 10. The survivor count [12] was 10 of 10 and the survivor count (dose: 600.0 mg/kg/injection, schedule: Q01DX009 (ip), vehicle: Klucel (hydroxypropylcellulose) (HPC)) was 10 of 10.
For `COc1cc2cc3cc4cc(OC)c(OC)cc4c(C)[n+]3cc2cc1OC` (tested in a mixture with another compound), the survivor count [7] was 7 of 10 and the survivor count (dose: 200.0 mg/kg/injection, schedule: Q01DX009 (ip), vehicle: saline) was 0 of 10.
`CC(C)CC(NC(=O)CF)C(=O)O` (configuration not stated) was tested, and the survivor count (dose: 10.0 mg/kg/injection, schedule: Q01DX009 (ip), vehicle: saline) was 3 of 10.
For `CCc1nc(N)nc(N)c1-c1ccc(Cl)c([N+](=O)[O-])c1`, the T/C [8] was 132 % of control and the survivor count [5] was 10 of 10.
With `CCOC(=O)C(N)C[S][Sn]([CH3])([CH3])[Cl]` (configuration not stated) the survivor count [6] was 9 of 10 and the survivor count [7] was 0 of 10.
`O=[N+]([O-])c1ccc(-n2[nH]nnc2=S)cc1` was tested, and the survivor count [9] was 4 of 10.
With `Nc1nc(=S)c2[nH]cnc2[nH]1` the survivor count [1] was 10 of 10.
For `CN=C(N)N/N=C(\c1ccccc1)c1ccc(Br)cc1`, the survivor count [8] was 10 of 10 and the survivor count [5] was 8 of 10.
For `O=C1C(=O)c2cccnc2-c2ncccc21`, the survivor count (dose: 6.25 mg/kg/injection, schedule: Q01DX009 (ip), vehicle: Klucel (hydroxypropylcellulose) (HPC)) was 9 of 10 and the survivor count (dose: 12.5 mg/kg/injection, schedule: Q01DX009 (ip), vehicle: Klucel (hydroxypropylcellulose) (HPC)) was 0 of 10.
In the case of `O=C(NO)c1cc(O)c(O)c(O)c1`, the survivor count (dose: 400.0 mg/kg/injection, schedule: Q01DX009 (ip), vehicle: water) is reported as 9 of 9 and the survivor count (dose: 800.0 mg/kg/injection, schedule: Q01DX009 (ip), vehicle: water) is reported as 2 of 10.
In the case of `Nc1ccnc(=O)[nH]1`, the T/C (dose: 64.0 mg/kg/injection, schedule: Q01DX009 (ip), vehicle: saline with Tween-80) is reported as 134 % of control and the T/C (dose: 128.0 mg/kg/injection, schedule: Q01DX009 (ip), vehicle: saline with Tween-80) is reported as 149 % of control.
With `O=c1n(CC2CO2)c(=O)n(CC2CO2)c(=O)n1CC1CO1` (configuration not stated) the T/C [13] was 129 % of control, the survivor count [13] was 7 of 10 and the survivor count [14] was 3 of 10 and 8 of 10. For the same compound, the survivor count [15] was 0 of 10 and 4 of 10.
With `Nc1ncn(C2OC(CO)C(O)C2O)c(=O)n1` (configuration not stated) the T/C (dose: 3.0 mg/kg/injection, schedule: Q01DX009 (ip), vehicle: saline) was 139 and 149 % of control, the survivor count (dose: 6.0 mg/kg/injection, schedule: Q01DX009 (ip), vehicle: saline) was 9 of 10 and 10 of 10 and the survivor count (dose: 12.0 mg/kg/injection, schedule: Q01DX009 (ip), vehicle: saline) was 9 of 10 and 10 of 10. The T/C [13] was 132 % of control, the T/C [14] was 139 % of control and the T/C [15] was 137 % of control.
For `Cc1cc(O)c(C(C)C)cc1S(=O)(=O)O` (tested in a mixture with another compound), the survivor count [12] was 0 of 10.
